## Screening data, single-dose tests

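Whole-cell growth test on Mycobacterium tuberculosis, read after 3 days in glucose-containing 7H9 medium; the read-out is not stated. Tested at 50 µM. The record gives no direction; compounds that gave an IC50 in retests scored well above the rest, so higher reads as more growth inhibition. Of about 69,000 compounds tested this way, about 760 (1.1%) reached 50% or more in at least one test.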

Each number is a percent effect as filed. The controls that fix the scale are not given in the record; negative values are as filed. Compounds were drawn at random from those tested, without regard to their results. Two or more numbers in one place are separate tests of the same structure; such repeats can differ widely.

compound,Percent Effect
COCC(=O)N1CCN(c2ccc(C(=O)OC)cc2)CC1C (centres unmarked),-13.83
CN(Cc1nc2ccsc2c(=O)[nH]1)CC1CCCCC1,-12.51
Cc1ccc(C(=O)NC2CCN(Cc3noc(C(C)C)n3)CC2)s1,8.591
Cc1n[nH]c2nc(-c3cccc(Cl)c3)cc(C(=O)O)c12,-1.092
CC(=O)N1CCC(C(=O)NC2CC(C)(C)Oc3cc(C)ccc32)CC1 (centres unmarked),5.044
Cc1nc(C(=O)N2CC(C)Sc3ccccc32)cs1 (centres unmarked),-12.83
Cn1c(NC(=O)CNC(=O)C2CCCC2)nc2cc(Cl)ccc21,31.33
O=C(Cc1ccc(-n2cccn2)cc1)N1CCN2CCCCC2C1 (centres unmarked),-6.075
O=C(CN1CC(c2nc(C3CC3)no2)C1)N1CCOCC1.O=C(O)C(=O)O,10.56
O=C(C1CCOCC1)N(CCc1ccccc1)C1CCOC1 (centres unmarked),18.49 and -2.625
O=C(NCCC1CCCO1)c1ccccc1N1CCOCC1 (centres unmarked),-15.71
CC(C)c1noc(Cn2ncn3cccc3c2=O)n1,-9.208
CS(=O)(=O)N1CCCC(C(=O)N2CCOc3ccccc32)C1 (centres unmarked),0.6085 and -0.6465
NCCc1cccc(CN2CCN(c3ccccc3)C(=O)C2)c1,49.14
CCOCc1ncn2c1CN(C(=O)Nc1ccccc1)CC2,-8.629
Cc1cc(C(=O)O)c2c(Br)cccc2n1,9.173
NC(=O)C1CCN(C(=O)NC2CCc3cc(Cl)ccc32)CC1 (centres unmarked),25
Cc1ccc2c(n1)N(CC1CC1)CCN(Cc1cnn(C)c1)C2,-4.368
COc1cc(F)ccc1N1CCN(Cc2nnc(C3CC3)o2)CC1,8.587
CN1CCC(NC(=O)C2CN(c3cncnc3)CCO2)CC1 (centres unmarked),-3.6
Cc1ccc(CN(C)C)cc1NC(=O)C1CC1,4.534
CN(C)C(=O)CO[C@H]1COCCN(C2CCOCC2)C1,-1.615 and 0.5261
O=C1CC(c2ccc(F)cc2)Cc2[nH]c(=O)c(C(=O)O)cc21 (centres unmarked),9.872
NC(=O)CCCNC(=O)COc1ccccc1C(F)(F)F,28.68
CCC1CN(C(=O)c2cc(C(C)=O)c(C)[nH]c2=O)CCN1C(C)C (centres unmarked),11.81
CC(C)n1cnnc1CN1C(=O)CCc2ccccc21,-5.553
Cn1ccnc1CN1CCCN(C(=O)c2ccc3[nH]nnc3c2)CC1,7.175
O=C(Cc1cccc(F)c1)NCCNS(=O)(=O)C1CCCC1,-3.771
CN1CCN(c2ncnc3c2CCN(c2ncc(F)cn2)CC3)CC1.O=C(O)C(F)(F)F,4.295 and 6.006
O=S(=O)(c1ccccc1Cl)N1CCc2nc(C3CCNCC3)ncc2C1,38.67
Cc1ccc(Nc2nccc(C3CN(C(C)C)C3)n2)nc1,-24.44
Cn1c(C2CC2)nc2c1CCN(Cc1nc(Cc3ccccc3)no1)C2,28.09
CC(C)[C@H]1CN(C2Cc3ccccc3C2)C[C@@H]1NS(=O)(=O)N(C)C,-5.173
CC1CN(C)c2ccccc2N(C(=O)c2ccc(=O)n(C)c2)C1 (centres unmarked),-80.96 and 1.301
COC(=O)C1CN(Cc2nc(C(C)(C)C)cs2)C[C@@H](C)O1 (some centres unmarked),7.87
CC[C@@H](C)[C@@H](N)C(=O)Nc1cccc(-c2cnc(N(C)CCO)nc2)c1,12.78
CC(CO)CN(Cc1ccccc1)Cc1c[nH]cn1 (centres unmarked),11.08 and 2.579
CC(=O)Nc1c(C)cnn1Cc1cc(F)ccc1F,-2.148
[H][C@@]12C[C@H](C(=O)Nc3ccccc3)[C@@]([H])(CN(C(=O)Nc3ccccc3)C1)O2,-3.988
Cc1nc(CN2CCC(c3ccnn3CCO)CC2)oc1C,-6.782
CS(=O)(=O)N1Cc2ccnn2CC(C(=O)NCc2cccnc2)C1.O=C(O)C(F)(F)F.O=C(O)C(F)(F)F (centres unmarked),-103.5
O=C(O)C(F)(F)F.O=S(=O)(c1cccs1)N1CCCC2(COCCN(c3cccnc3)C2)C1 (centres unmarked),-15.04
CC(C)CCC(C)NC(=O)CN1C=Nc2ccccc2S1(=O)=O (centres unmarked),3.958
CCC1(O)CCCN(c2nc(-c3ccccn3)nc3c2c(C)nn3C)C1 (centres unmarked),7.001
CS(=O)(=O)N1CCC(C(=O)NCCNc2ncccn2)CC1,32.64
O=C(Cn1nc2ccccc2n1)N1CCCn2cncc2C1,-13.7
Cc1ncc(CN2CCCC(c3nc4ccccc4n3C(C)C)C2)s1 (centres unmarked),2.658
O=C(Nc1cccc(CN2CCOC2=O)c1)N1CCCC1,13.77
CCc1noc(CN2CCCC2C(=O)OCc2ccccc2)n1 (centres unmarked),28.79 and 13.36
O=C1Nc2ccccc2/C1=C1\CCCN1,8.278
CCOC(=O)CSc1nnc(C(N)CC(C)C)o1.Cl (centres unmarked),9.536
c1ccc(CN2CCC3(COCc4cnc(NCC5CC5)nc43)C2)cc1 (centres unmarked),5.278
O=C(O)C(F)(F)F.O=C(O)C(F)(F)F.O=C1N(c2ccsc2)CCC12CCCN(Cc1ccccn1)C2 (centres unmarked),11.58 and 6.323
COc1cccc(CN2CCCCCC2c2sccc2C)c1O (centres unmarked),32.06
CN(CCN1CCN(c2ccccc2)CC1)C(=O)Nc1ccccn1,7.541 and 1.053
CN(CC1(CO)CCC1)C(=O)C1CCC(=O)N(Cc2ccc(Cl)cc2)C1 (centres unmarked),-0.4454
O=C(O)C(F)(F)F.[H][C@@]12CN(C(=O)c3ccsc3)C[C@]1([H])C(=O)N(Cc1cccnc1)C2,-7.204 and -31.47
Cc1ncccc1NC(=O)c1nc2c(n1C)CCN(C(=O)C1CC1)C2,12.87
COCCN1CC[C@H](O)[C@@H]1Cc1ccccc1.O=C(O)C(F)(F)F,-3.082
CNS(=O)(=O)c1ccc(C(=O)N2CCCC2c2ccccc2C)o1 (centres unmarked),1.879
Clc1ccc(OCCc2cc(C3CCN(c4ncccn4)C3)n[nH]2)cc1 (centres unmarked),37.76
CCC(CNC(=O)c1cccc(S(=O)(=O)NC)c1)N1CCCC1 (centres unmarked),-2.341
COc1cccc(F)c1CN1CCC(c2nccc(C)n2)C1 (centres unmarked),-14.17
Cc1cc(C[C@@H]2COC[C@H]2NCc2ccc(C)c(C)c2)on1.O=C(O)CC(O)(CC(=O)O)C(=O)O,10.48
[H][C@]12CCC[C@@]1(COCc1cccnc1)CN(C(=O)Cc1ccco1)C2,-10.21
CC(c1ccc(F)c(F)c1)N1CCN(Cc2nccn2C)CC1 (centres unmarked),-29.97
CCOc1nc2cnccc2n(CC(=O)NCCc2ccccc2)c1=O,-6.785
O=C(c1cnc(-c2cccnc2)nc1)N1CCSCC1,-19.57
Cc1ccc(NC(=O)Cn2cc(I)cn2)cc1,11.93 and 3.224
Cc1csc(C(=O)NCCn2nc(-n3cncn3)ccc2=O)c1,28.81
Cc1ccc(CN2CCN(c3ncnc4[nH]cnc34)CC2CCO)cc1 (centres unmarked),20.31
CS(=O)(=O)N1CCOCC2(CN(Cc3ccsc3)CCO2)C1.O=C(O)C(F)(F)F (centres unmarked),4.495
O=C(c1ccc(Br)o1)N1CCN(Cc2ccc(F)cc2)CC1,54.41
CCOCCC(=O)N(C)c1ccc(F)c(Cl)c1,8.405
Cc1nn(C)c(C)c1C(=O)N1CCN(c2ccncc2Cl)CC1,-0.6531
[H][C@]12CCC[C@@]1(CO)CN(C(=O)c1cc(C)nc3ccc(CC)cc13)C2,11.66
CCOc1cccc(C(C(=O)O)N(C)Cc2cc(C)no2)c1 (centres unmarked),-23.11
CCC[C@H]1CN(c2cncc(C(=O)N3CCCCC3)n2)C[C@@H]1N(C)C,15.39
CSCCC(NC(=O)C1CC1)C(=O)N(C)Cc1ccsc1 (centres unmarked),-53.49
CC(c1ccco1)n1cc(-c2cc(CN3CCCC3)cs2)nn1 (centres unmarked),4.402
Cc1cccc(COC2COC3(CCN(S(C)(=O)=O)CC3)C2)n1.O=C(O)C(F)(F)F (centres unmarked),9.457 and -3.804
Cn1c(=O)c2c(n3ncnc13)NC(=O)CC2c1cccc(Br)c1 (centres unmarked),32.03
CCCC(C)CS(=O)(=O)NCc1cccnc1OC (centres unmarked),23.75
Cc1ccc(C(=O)N2CCCC(c3[nH]ncc3S(C)(=O)=O)C2)s1 (centres unmarked),23.64
[H][C@@]12CCN(Cc3ccc(C)o3)C[C@]1([H])OCCN(c1cccnc1)C2=O,-7.33 and -23.48
O=C(O)C(F)(F)F.O=C(O)C(F)(F)F.O=C1NCC[C@]12CN(Cc1cccnc1)C[C@H]2c1ccccc1,19.02 and 16.64

8 of the entries, repeated:

{"compound": "CN1CCN(c2ncnc3c2CCN(c2ncc(F)cn2)CC3)CC1.O=C(O)C(F)(F)F", "Percent Effect": "4.295 and 6.006"}
{"compound": "NC(=O)C1CCN(C(=O)NC2CCc3cc(Cl)ccc32)CC1", "stereo": "centres unmarked", "Percent Effect": 25}
{"compound": "CC(C)n1cnnc1CN1C(=O)CCc2ccccc21", "Percent Effect": -5.553}
{"compound": "O=C1Nc2ccccc2/C1=C1\\CCCN1", "Percent Effect": 8.278}
{"compound": "O=C(Nc1cccc(CN2CCOC2=O)c1)N1CCCC1", "Percent Effect": 13.77}
{"compound": "COc1cccc(F)c1CN1CCC(c2nccc(C)n2)C1", "stereo": "centres unmarked", "Percent Effect": -14.17}
{"compound": "CC(C)CCC(C)NC(=O)CN1C=Nc2ccccc2S1(=O)=O", "stereo": "centres unmarked", "Percent Effect": 3.958}
{"compound": "CCc1noc(CN2CCCC2C(=O)OCc2ccccc2)n1", "stereo": "centres unmarked", "Percent Effect": "28.79 and 13.36"}

Source: ChEMBL document CHEMBL3988442, “University of Dundee, Small-Polar-MMV Screening Library” (2021).